Results from one PubChem assay

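HEK293 cells carrying a CMV promoter luciferase reporter, with luminescence read 24 h after treatment to check for nonspecific loss of reporter signal. Percent change in reporter signal versus neutral control wells at the top tested concentration; more negative values mean stronger inhibition. Inconclusive means the independent runs disagreed, the fit was flat at 30 to 70% inhibition, or the curve fit was poor.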

Values are in %. All entries here are filed as inconclusive. Only part of the assay is shown, chiefly results filed as inconclusive.

- N#Cc1cccc(-c2ccc(C3[C@@H]4CN(C(=O)C5CC5)C[C@H]3N4)cc2)c1 (some centres undefined) [at 35 µM (top of the series)] : activity change -64%
- CCOc1ccc(C(=O)c2cc([N+](=O)[O-])ccc2N2CCOCC2)cc1 [at 35 µM (top of the series)] : activity change -55.79%
- Cc1ccc(Cl)cc1NC1=C/C(=N\S(=O)(=O)c2cccs2)c2ccccc2C1=O [at 35 µM (top of the series)] : activity change -36.62%
- C[C@@H]1O[C@@H](O[C@H]2C[C@@H](O)[C@]3(CO)[C@H]4[C@H](O)C[C@]5(C)[C@@H](C6COC(=O)C6)CC[C@]5(O)[C@@H]4CC[C@]3(O)C2)[C@H](O)[C@H](O)[C@H]1O (some centres undefined) [at 35 µM (top of the series)] : activity change -66.73%
- CN(C)CCNc1ccc(CO)c2sc3ccc(O)cc3c(=O)c12 [at 35 µM (top of the series)] : activity change -24.57%
- CCN1CCN(c2nc(-c3cccs3)nc3ccccc23)CC1 [at 35 µM (top of the series)] : activity change 66.7%
- C[C@@H]1CN([C@@H](C)CO)S(=O)(=O)c2ccc(C#Cc3ccccc3F)cc2O[C@H]1CN(C)C(=O)c1ccc2c(c1)OCO2 [at 35 µM (top of the series)] : activity change -44.14%
- C[C@@H]1CN([C@H](C)CO)C(=O)c2cc(NS(=O)(=O)c3ccc(F)cc3)ccc2O[C@@H](C)CCCCO[C@H]1CN(C)Cc1ccc(C(F)(F)F)cc1 [at 35 µM (top of the series)] : activity change -13.08%
- Oc1c(Cl)cc(CN2CCOCC2)c2cccnc12 [at 35 µM (top of the series)] : activity change -96.81%
- C[C@H]1CN([C@@H](C)CO)C(=O)Cc2cc(NC(=O)Nc3ccc4c(c3)OCO4)ccc2O[C@@H]1CN(C)Cc1ccc(-c2ccccc2)cc1 [at 35 µM (top of the series)] : activity change -15.48%
- C#CCN(C[C@@H]1[C@@H](OC(=O)NCc2ccc(OC)c(OC)c2)[C@@H](OC(=O)NCc2ccc(OC)c(OC)c2)Cn2c(=O)ccc(=O)n21)S(=O)(=O)c1ccc(C)cc1 [at 35 µM (top of the series)] : activity change -23.04%
- NC1=C(Br)C(=O)c2ncccc2C1=O [at 35 µM (top of the series)] : activity change -72.09%
- Cc1ccc2nc(-c3ccc(NC(=S)NC4CC(C)(C)NC(C)(C)C4)cc3)sc2c1 [at 35 µM (top of the series)] : activity change 109%
- COc1ccc(CCN2C(=O)CSC2=S)cc1OC [at 35 µM (top of the series)] : activity change 46.67%
- Cc1cccc(C(=O)Oc2ccc(/C=N/NC(=O)c3ccccc3O)cc2)c1 [at 16 µM (top of the series)] : activity change 100.4%
- COc1cccc(C(c2nnnn2Cc2ccccc2)N2CCC(n3c(=O)[nH]c4ccccc43)CC2)c1OC (centres undefined) [at 35 µM (top of the series)] : activity change -77.56%
- CC(=O)OC1CC(OC2C(O)CC(OC3C(O)CC(OC4CCC5(C)C(CCC6C5CCC5(C)C(C7=CC(=O)OC7)CCC65O)C4)OC3C)OC2C)OC(C)C1OC1OC(CO)C(O)C(O)C1O (centres undefined) [at 35 µM (top of the series)] : activity change -85.42%
- C[C@H](CO)N1C[C@H](C)[C@H](CN(C)Cc2ccc(C(F)(F)F)cc2)OCCCC[C@H](C)Oc2ccc(NC(=O)CCC(F)(F)F)cc2C1=O [at 35 µM (top of the series)] : activity change -60.07%
- COC(=O)C1=C(c2ccc(F)cc2OCc2ccccc2)C[C@@H]2CC[C@H]1N2C(=O)NCc1ccc(C(F)(F)F)cc1 [at 35 µM (top of the series)] : activity change 64.92%
- CCOCC(=O)NC1CCc2cc(OC(=O)COCC)c(OC)c(OC)c2-c2ccc(SC)c(=O)cc21 (centres undefined) [at 35 µM (top of the series)] : activity change -68.96%
- N#C[C@@H]1[C@@H](c2ccc(C#Cc3ccccc3F)cc2)[C@H](CO)N1C(=O)C1CCCCC1 [at 30 µM (top of the series)] : activity change -9.781%
- COc1ccccc1C#Cc1ccc([C@H]2[C@H](C#N)N(C(=O)C3CCC3)[C@H]2CO)cc1 [at 35 µM (top of the series)] : activity change -39.48%
- O=C1C(=O)c2cccnc2-c2ncccc21 [at 35 µM (top of the series)] : activity change -29.72%
- CC(C)(C)OC(=O)NCCCC[C@H](NC(=O)c1[nH]cnc1C(=O)Nc1ccc(CNC(=O)OC(C)(C)C)cc1)C(=O)OC(C)(C)C [at 35 µM (top of the series)] : activity change -63.67%
- CC[C@@H]1CCC[C@@H](O)[C@@H](C)C(=O)O[C@H](C)[C@@H](C)C/C=C(C)/C(OC)=C\C(=O)N(C)C([C@@H](C)CC)C(=O)N(C)[C@@H](C(C)C)C(=O)N(C)[C@@H](COC)C(=O)N2CCC[C@H]2C(=O)N(C)[C@@H](C(C)C)C(=O)N2CCC[C@H]2C(=O)O1 (some centres undefined) [at 35 µM (top of the series)] : activity change -43.05%
- COc1cc(OC)c(NC2=CC(=O)C(=O)c3ccccc32)cc1Cl [at 35 µM (top of the series)] : activity change -22.88%
- COc1ccc2nc(C)cc(N/N=C/c3cccc(OC)c3O)c2c1 [at 35 µM (top of the series)] : activity change -6.985%
- CC(C)(C)c1nnc(NC(=O)CCS(=O)(=O)c2ccccc2)s1 [at 35 µM (top of the series)] : activity change 5.533%

Some entries from above, unchanged:

compound,condition,activity change (%)
COc1ccc(CCN2C(=O)CSC2=S)cc1OC,at 35 µM (top of the series),46.67
Cc1cccc(C(=O)Oc2ccc(/C=N/NC(=O)c3ccccc3O)cc2)c1,at 16 µM (top of the series),100.4

The results are deposited in PubChem (AID743020; Broad Institute, 2013).